Measured data: PubChem BioAssay AID743121 (NCATS, 2013)

Screen: 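Knock-downs that sensitise breast cancer cells to camptothecin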 (primary screen)
System: MDA-MB-231 cells, a human breast cancer line
Knock-down reagent: single siRNA against human genes, 20 nM siRNA (0.8 pmol per well)
Duration: 120 h (drug added 48 h after transfection, read 72 h later)
Challenge: camptothecin 20 nM (about EC30) for 72 h; vehicle 0.1% DMSO in parallel plates
Read-out: 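CellTiter-Glo ATP signal, scaled to control siRNA as percent viability; sensitisation given as log2 of untreated divided by camptothecin-treated viability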
Scale: log2 vehicle/camptothecin viability: higher = stronger sensitisation to camptothecin; viability with camptothecin and viability without drug: higher = more viable cells
Rule for the call: 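Active genes have an RSA gene-level p-value below 0.001, computed from the ratios of their separate siRNAs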
The deposit covers about 26,000 reagents; shown is an unselected part. 167 of all reagents (0.63%) were called active. 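Calls are per gene from RSA p-values that are not deposited; an individual active-marked siRNA can sensitise only weakly.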 Reagents against one gene are numbered here.

target	reagent no.	log2 vehicle/camptothecin viability	viability with camptothecin (% of control)	viability without drug (% of control)	call
ADAR (adenosine deaminase RNA specific)	1	-0.286	20.2	16.5	inactive
ADAR (adenosine deaminase RNA specific)	2	0.444	47.9	65.1	inactive
ADAR (adenosine deaminase RNA specific)	3	-0.231	79	67.3	inactive
ADAR (adenosine deaminase RNA specific)	4	0.299	59.2	72.9	inactive
LOC390282	1	-0.129	93	85.1	inactive
LOC390282	2	-0.0703	95.7	91.1	inactive
LOC390282	3	-0.46	86.4	62.8	inactive
HTR6 (5-hydroxytryptamine receptor 6)	1	-0.587	63.7	42.4	inactive
HTR6 (5-hydroxytryptamine receptor 6)	2	0.0223	22.9	23.2	inactive
HTR6 (5-hydroxytryptamine receptor 6)	3	0.868	58	106	inactive
HTR6 (5-hydroxytryptamine receptor 6)	4	-0.16	87.4	78.2	inactive
TXNDC12 (thioredoxin domain containing 12)	1	0.437	27.1	36.8	inactive
TXNDC12 (thioredoxin domain containing 12)	2	-0.366	52.1	40.4	inactive
TXNDC12 (thioredoxin domain containing 12)	3	-0.32	60	48.1	inactive
TREM1 (triggering receptor expressed on myeloid cells 1)	1	-0.0216	80.4	79.2	inactive
TREM1 (triggering receptor expressed on myeloid cells 1)	2	-0.0984	111	103	inactive
TREM1 (triggering receptor expressed on myeloid cells 1)	3	-0.0395	79.9	77.7	inactive
TREM1 (triggering receptor expressed on myeloid cells 1)	4	0.111	81.1	87.6	inactive
RDH14 (retinol dehydrogenase 14)	1	0.0296	73.9	75.4	inactive
RDH14 (retinol dehydrogenase 14)	2	-0.204	65.6	56.9	inactive
RDH14 (retinol dehydrogenase 14)	3	-0.56	57.1	38.8	inactive
RDH14 (retinol dehydrogenase 14)	4	0.766	29.2	49.7	inactive
MBD3 (methyl-CpG binding domain protein 3)	1	-0.344	94.6	74.5	inactive
MBD3 (methyl-CpG binding domain protein 3)	2	-0.47	81.8	59.1	inactive
MBD3 (methyl-CpG binding domain protein 3)	3	0.295	39	47.9	inactive
MBD3 (methyl-CpG binding domain protein 3)	4	-0.289	73.5	60.2	inactive
GP1BA (glycoprotein Ib platelet subunit alpha)	1	-0.0765	58.8	55.8	inactive
GP1BA (glycoprotein Ib platelet subunit alpha)	2	-0.255	68.6	57.5	inactive
GP1BA (glycoprotein Ib platelet subunit alpha)	3	-0.044	101	97.8	inactive
GP1BA (glycoprotein Ib platelet subunit alpha)	4	-0.138	35.9	32.6	inactive
HCAR1 (hydroxycarboxylic acid receptor 1)	1	-0.176	101	89.4	inactive
HCAR1 (hydroxycarboxylic acid receptor 1)	2	-0.554	86.1	58.6	inactive
HCAR1 (hydroxycarboxylic acid receptor 1)	3	-0.264	71.4	59.4	inactive
HCAR1 (hydroxycarboxylic acid receptor 1)	4	-0.271	33.1	27.4	inactive
SNUPN (snurportin 1)	1	-0.157	129	116	inactive
SNUPN (snurportin 1)	2	0.0632	107	112	inactive
SNUPN (snurportin 1)	3	0.0363	118	121	inactive
SNUPN (snurportin 1)	4	0.275	66.7	80.7	inactive
MTMR8 (myotubularin related protein 8)	1	-0.231	90.1	76.7	inactive
MTMR8 (myotubularin related protein 8)	2	-0.127	99.7	91.4	inactive
MTMR8 (myotubularin related protein 8)	3	0.00232	61.8	61.9	inactive
MTMR8 (myotubularin related protein 8)	4	-0.324	101	80.4	inactive
MUC6 (mucin 6, oligomeric mucus/gel-forming (gene/pseudogene))	1	0.474	63.8	88.6	inactive
MUC6 (mucin 6, oligomeric mucus/gel-forming (gene/pseudogene))	2	-0.131	91.8	83.8	inactive
MUC6 (mucin 6, oligomeric mucus/gel-forming (gene/pseudogene))	3	0.42	34.8	46.6	inactive
MUC6 (mucin 6, oligomeric mucus/gel-forming (gene/pseudogene))	4	0.554	17	24.9	inactive
MUC6 (mucin 6, oligomeric mucus/gel-forming (gene/pseudogene))	5	-0.205	74.4	64.6	inactive
MUC6 (mucin 6, oligomeric mucus/gel-forming (gene/pseudogene))	6	-0.522	95.8	66.7	inactive
MUC6 (mucin 6, oligomeric mucus/gel-forming (gene/pseudogene))	7	-0.21	104	89.7	inactive
MUC6 (mucin 6, oligomeric mucus/gel-forming (gene/pseudogene))	8	-0.199	90.4	78.8	inactive

In a second layout: entries from further up
{"target": "LOC390282", "reagent no.": 2, "log2 vehicle/camptothecin viability": -0.0703, "viability with camptothecin (% of control)": 95.7, "viability without drug (% of control)": 91.1, "call": "inactive"}
{"target": "LOC390282", "reagent no.": 3, "log2 vehicle/camptothecin viability": -0.46, "viability with camptothecin (% of control)": 86.4, "viability without drug (% of control)": 62.8, "call": "inactive"}
{"target": "HTR6 (5-hydroxytryptamine receptor 6)", "reagent no.": 1, "log2 vehicle/camptothecin viability": -0.587, "viability with camptothecin (% of control)": 63.7, "viability without drug (% of control)": 42.4, "call": "inactive"}
{"target": "HTR6 (5-hydroxytryptamine receptor 6)", "reagent no.": 2, "log2 vehicle/camptothecin viability": 0.0223, "viability with camptothecin (% of control)": 22.9, "viability without drug (% of control)": 23.2, "call": "inactive"}
{"target": "HTR6 (5-hydroxytryptamine receptor 6)", "reagent no.": 3, "log2 vehicle/camptothecin viability": 0.868, "viability with camptothecin (% of control)": 58, "viability without drug (% of control)": 106, "call": "inactive"}
{"target": "HTR6 (5-hydroxytryptamine receptor 6)", "reagent no.": 4, "log2 vehicle/camptothecin viability": -0.16, "viability with camptothecin (% of control)": 87.4, "viability without drug (% of control)": 78.2, "call": "inactive"}
{"target": "TXNDC12 (thioredoxin domain containing 12)", "reagent no.": 1, "log2 vehicle/camptothecin viability": 0.437, "viability with camptothecin (% of control)": 27.1, "viability without drug (% of control)": 36.8, "call": "inactive"}
